Patent US20070134663A1
Results are given in words; binding and its absence hold for the method and conditions named. In cells and extracts the contact can be indirect. Some entries that bind do so weakly or less than the wild type.

By UniProt entry, the sequences of proteins in these tests, tags left out. Residues count along the entry.
UniProt P19838, residues 1-436: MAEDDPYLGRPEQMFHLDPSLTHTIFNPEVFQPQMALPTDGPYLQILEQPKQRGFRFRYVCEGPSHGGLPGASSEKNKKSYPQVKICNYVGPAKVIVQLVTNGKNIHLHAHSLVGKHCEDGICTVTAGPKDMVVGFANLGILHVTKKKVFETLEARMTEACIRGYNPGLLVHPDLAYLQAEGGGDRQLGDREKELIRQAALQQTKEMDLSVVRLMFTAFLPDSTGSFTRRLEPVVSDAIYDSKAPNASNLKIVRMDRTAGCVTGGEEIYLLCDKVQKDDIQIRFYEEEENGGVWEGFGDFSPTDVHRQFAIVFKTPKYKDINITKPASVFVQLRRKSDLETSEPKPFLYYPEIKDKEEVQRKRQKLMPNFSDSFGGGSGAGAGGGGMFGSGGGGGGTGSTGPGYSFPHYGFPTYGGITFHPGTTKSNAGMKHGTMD
UniProt Q04206: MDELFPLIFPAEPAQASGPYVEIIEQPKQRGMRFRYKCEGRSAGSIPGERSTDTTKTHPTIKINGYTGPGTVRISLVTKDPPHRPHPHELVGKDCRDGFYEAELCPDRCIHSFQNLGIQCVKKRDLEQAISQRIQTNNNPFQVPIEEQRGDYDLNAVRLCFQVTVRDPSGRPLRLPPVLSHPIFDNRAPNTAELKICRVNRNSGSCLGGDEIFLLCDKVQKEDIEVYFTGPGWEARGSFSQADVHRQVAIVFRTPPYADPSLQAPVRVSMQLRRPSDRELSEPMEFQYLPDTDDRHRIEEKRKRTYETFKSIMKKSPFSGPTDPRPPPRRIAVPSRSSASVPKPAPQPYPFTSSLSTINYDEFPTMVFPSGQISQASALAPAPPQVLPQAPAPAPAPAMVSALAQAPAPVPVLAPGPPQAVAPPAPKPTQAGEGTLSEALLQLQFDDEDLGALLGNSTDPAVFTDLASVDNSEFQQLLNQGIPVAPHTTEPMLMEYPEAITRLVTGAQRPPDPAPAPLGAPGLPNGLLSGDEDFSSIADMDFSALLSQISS
UniProt P52294: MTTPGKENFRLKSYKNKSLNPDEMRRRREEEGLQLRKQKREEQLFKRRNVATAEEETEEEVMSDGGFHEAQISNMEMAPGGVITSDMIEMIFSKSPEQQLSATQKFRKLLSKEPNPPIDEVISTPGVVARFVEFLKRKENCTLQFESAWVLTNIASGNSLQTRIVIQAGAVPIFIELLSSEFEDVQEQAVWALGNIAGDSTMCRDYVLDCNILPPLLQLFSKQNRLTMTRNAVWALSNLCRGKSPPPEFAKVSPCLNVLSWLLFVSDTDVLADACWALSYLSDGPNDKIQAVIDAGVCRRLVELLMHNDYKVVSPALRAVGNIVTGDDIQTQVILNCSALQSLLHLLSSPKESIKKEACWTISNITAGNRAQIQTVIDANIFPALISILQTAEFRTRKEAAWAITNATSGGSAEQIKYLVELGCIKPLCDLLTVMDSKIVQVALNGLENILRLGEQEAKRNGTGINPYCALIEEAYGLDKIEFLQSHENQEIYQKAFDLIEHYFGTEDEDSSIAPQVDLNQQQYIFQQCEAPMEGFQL
UniProt Q04759: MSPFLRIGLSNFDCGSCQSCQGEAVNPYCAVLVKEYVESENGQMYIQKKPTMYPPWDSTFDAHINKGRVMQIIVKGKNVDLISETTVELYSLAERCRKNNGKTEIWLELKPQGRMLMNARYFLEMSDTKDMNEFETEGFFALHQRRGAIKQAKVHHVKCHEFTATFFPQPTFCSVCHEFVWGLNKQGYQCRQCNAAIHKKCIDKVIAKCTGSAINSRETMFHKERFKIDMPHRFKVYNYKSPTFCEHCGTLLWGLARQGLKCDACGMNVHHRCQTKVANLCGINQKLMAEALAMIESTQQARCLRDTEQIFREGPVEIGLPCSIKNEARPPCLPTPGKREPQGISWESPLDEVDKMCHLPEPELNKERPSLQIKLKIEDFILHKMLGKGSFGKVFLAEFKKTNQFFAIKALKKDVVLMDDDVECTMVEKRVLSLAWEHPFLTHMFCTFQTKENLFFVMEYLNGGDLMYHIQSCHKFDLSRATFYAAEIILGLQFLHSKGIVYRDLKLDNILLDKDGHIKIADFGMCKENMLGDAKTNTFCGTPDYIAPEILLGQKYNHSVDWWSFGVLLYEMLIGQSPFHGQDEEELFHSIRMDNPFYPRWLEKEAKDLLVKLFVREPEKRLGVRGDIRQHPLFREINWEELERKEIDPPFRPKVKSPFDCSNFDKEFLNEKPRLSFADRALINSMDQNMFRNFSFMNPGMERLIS

Legend:
myc-p50 (human) [1] = target: myc-p50 (human) (UniProt P19838); test: co-immunoprecipitation from HEK293T cells, western blot (figure legend)
myc-p65 (human) [2] = target: myc-p65 (human) (UniProt Q04206); test: as above
myc-p50 (human) [3] = target: myc-p50 (human) (UniProt P19838); test: co-immunoprecipitation from HEK293T lysate: anti-myc agarose pull-down, western blot with anti-FLAG M2
myc-p65 (human) [4] = target: myc-p65 (human) (UniProt Q04206); test: as above
FLAG-KPNA1 (human) [5] = target: FLAG-KPNA1 (human) (UniProt P52294); test: co-immunoprecipitation from HEK293T cells, western blot (figure legend)
FLAG-KPNA1 (human) [6] = target: FLAG-KPNA1 (human) (UniProt P52294); test: co-immunoprecipitation from HEK293T lysate: anti-FLAG M2 agarose pull-down, western blot with c-Myc (9E10)

Measured: binding

FLAG-KPNA1 (from UniProt P52294 1-538)
binds: myc-p50 (human) [1] | myc-p65 (human) [2] | myc-p50 (human) [3] | myc-p65 (human) [4]

PKC theta-myc-His (from UniProt Q04759 1-706) (enzyme)
binds: FLAG-KPNA1 (human) [5] | FLAG-KPNA1 (human) [6]
